Data taken from article PMC5003816.
No constants are given. Whether binding was seen depends on the method and setting. In cells and extracts the contact can be indirect. Some results given as binding are weak or reduced against the parent protein; the word gives no strength.

Protein sequences, listed by entry. Tags and fused reporters are not part of them.
UniProt P11142: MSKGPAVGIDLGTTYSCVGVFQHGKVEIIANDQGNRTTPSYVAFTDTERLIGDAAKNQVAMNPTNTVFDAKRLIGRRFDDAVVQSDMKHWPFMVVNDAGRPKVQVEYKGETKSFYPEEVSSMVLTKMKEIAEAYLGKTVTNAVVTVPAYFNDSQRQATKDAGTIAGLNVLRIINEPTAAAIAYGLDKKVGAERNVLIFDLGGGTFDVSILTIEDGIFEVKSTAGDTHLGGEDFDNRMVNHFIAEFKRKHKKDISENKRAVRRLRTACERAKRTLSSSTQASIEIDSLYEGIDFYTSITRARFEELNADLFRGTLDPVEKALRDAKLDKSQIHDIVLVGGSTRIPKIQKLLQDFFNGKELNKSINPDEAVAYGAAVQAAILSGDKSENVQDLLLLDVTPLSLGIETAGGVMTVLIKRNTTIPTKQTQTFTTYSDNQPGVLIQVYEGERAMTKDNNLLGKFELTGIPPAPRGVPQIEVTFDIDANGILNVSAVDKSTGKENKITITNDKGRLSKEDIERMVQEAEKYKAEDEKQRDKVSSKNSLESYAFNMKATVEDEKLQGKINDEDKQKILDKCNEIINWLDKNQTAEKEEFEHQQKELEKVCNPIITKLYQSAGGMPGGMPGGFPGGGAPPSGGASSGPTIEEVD
UniProt Q9UHD9: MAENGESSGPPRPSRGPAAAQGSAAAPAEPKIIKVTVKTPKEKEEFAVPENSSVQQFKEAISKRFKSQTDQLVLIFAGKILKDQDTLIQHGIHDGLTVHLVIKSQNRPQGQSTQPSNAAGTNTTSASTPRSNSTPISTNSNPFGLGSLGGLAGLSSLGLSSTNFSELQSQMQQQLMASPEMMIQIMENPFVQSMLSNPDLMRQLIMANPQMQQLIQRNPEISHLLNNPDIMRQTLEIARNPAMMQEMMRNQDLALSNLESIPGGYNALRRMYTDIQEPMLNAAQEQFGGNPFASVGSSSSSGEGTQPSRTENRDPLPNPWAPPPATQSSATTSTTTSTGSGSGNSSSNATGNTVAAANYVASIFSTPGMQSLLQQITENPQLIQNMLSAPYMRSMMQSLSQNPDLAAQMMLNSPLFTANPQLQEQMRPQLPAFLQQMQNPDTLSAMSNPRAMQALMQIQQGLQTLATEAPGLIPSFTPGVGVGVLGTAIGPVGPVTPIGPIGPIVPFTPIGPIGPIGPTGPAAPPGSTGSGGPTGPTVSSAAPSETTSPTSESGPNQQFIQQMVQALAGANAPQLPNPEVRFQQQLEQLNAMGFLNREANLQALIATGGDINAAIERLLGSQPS

Biological target: HSPA8-SV5, full-length (UniProt P11142)
Test: co-IP; IP of HSPA8-SV5 mutants expressed in HEK293 cells, endogenous UBQLN2 detected; heat shock as indicated

UBQLN2 (human, endogenous in HEK293) (from UniProt Q9UHD9 1-624)
binding: binds
